Literature values as cited in patent US20240077481A1, “IMPROVED TREATMENT METHODS USING DMDS FOR THE TREATMENT OF AUTOIMMUNE DISEASES, AND BIOMARKER FOR PREDICTING AND/OR OPTIMISING SAID TREATMENT METHODS” (ARES TRADING S.A., priority 2021, published 2024).
At least one compound was matched to its structure with a doubt left.

What was measured:
[1] = tested on: B cell; conditions: with treatment (Claes et al., 2014); cited from earlier work
[2] = tested on: naïve B cell; conditions: with treatment (Claes et al., 2014); cited from earlier work

**Q.** With `CCCCCCCCc1ccc(CCC(N)(CO)CO)cc1` [fingolimod] as the compound, how does the “total B cell counts” value [1] read?
**A.** decrease

**Q.** And the “effect on naïve B cell counts” value [2]?
**A.** less apparent
